The nature of this series: palatability of 0.2 percent solutions of d,l-glaucine salts (taste). To be noted: 0.2 percent (weight by volume) in distilled water, a few drops to the tongue.

SMILES strings stand for the structures. Structures can show the parent of a compound that is named as a salt.

As to `COc1cc2c(cc1OC)-c1c(OC)c(OC)cc3c1C(C2)N(C)CC3` (racemic) [d,l-glaucine lactate], the “palatability (taste)” value is “lack the sharp, metallic flavor and to be unobjectionable”. With `COc1cc2c(cc1OC)-c1c(OC)c(OC)cc3c1C(C2)N(C)CC3` (racemic) [d,l-glaucine phosphate], the “palatability (taste)” value (listed as d,l-Glaucine phosphate (2:3)) is “lack the sharp, metallic flavor and to be unobjectionable”. On to `COc1cc2c(cc1OC)-c1c(OC)c(OC)cc3c1C(C2)N(C)CC3` (racemic) [hydrobromide, d,l-glaucine hydrobromide], for which the “palatability (taste)” value (hydrobromide) was “objectionable with a bitter, sharp and metallic initial taste which increased with time”. As to `COc1cc2c(cc1OC)-c1c(OC)c(OC)cc3c1C(C2)N(C)CC3` (racemic) [salicylate, d,l-glaucine salicylate], the “palatability (taste)” value was “more objectionable than the hydrobromide”. In the case of `COc1cc2c(cc1OC)-c1c(OC)c(OC)cc3c1C(C2)N(C)CC3` (racemic) [succinate], the “palatability (taste)” value is listed as “more objectionable than the hydrobromide”.

(Values after patent publication US4183939A, “Glaucine analgesic method” (priority 1978, dated 1980).)
